Measurements from the M2OR odorant receptor database.
Only a part is listed here, and it is no random draw. The calls were merged from several studies; some rest on single wells. This is one part of the list.

By UniProt entry, the sequences of proteins in these tests, tags left out. Where a name states a change or a piece, a line headed by the entry shows the natural chain unless it says otherwise. Chains listed by the source or under a name are the forms on record and can include a tag or linker.
UniProt Q8VFM9: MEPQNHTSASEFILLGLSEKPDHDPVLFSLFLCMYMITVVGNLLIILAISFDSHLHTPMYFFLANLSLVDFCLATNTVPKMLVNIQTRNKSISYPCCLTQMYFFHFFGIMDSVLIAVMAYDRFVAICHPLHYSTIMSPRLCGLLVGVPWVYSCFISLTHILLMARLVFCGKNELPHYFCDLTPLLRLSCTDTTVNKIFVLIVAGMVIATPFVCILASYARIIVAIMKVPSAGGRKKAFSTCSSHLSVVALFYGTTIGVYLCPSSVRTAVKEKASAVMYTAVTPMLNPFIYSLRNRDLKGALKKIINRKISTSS
UniProt Q8VGS3: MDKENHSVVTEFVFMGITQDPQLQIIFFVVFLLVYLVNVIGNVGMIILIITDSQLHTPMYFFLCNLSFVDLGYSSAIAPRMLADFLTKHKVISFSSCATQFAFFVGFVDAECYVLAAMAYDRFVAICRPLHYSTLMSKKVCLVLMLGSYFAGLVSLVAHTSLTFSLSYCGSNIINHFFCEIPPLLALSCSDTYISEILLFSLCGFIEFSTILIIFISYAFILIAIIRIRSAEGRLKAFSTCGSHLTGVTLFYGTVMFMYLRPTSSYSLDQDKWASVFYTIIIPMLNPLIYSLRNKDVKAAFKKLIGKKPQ
UniProt A2ATE5, as listed by the source: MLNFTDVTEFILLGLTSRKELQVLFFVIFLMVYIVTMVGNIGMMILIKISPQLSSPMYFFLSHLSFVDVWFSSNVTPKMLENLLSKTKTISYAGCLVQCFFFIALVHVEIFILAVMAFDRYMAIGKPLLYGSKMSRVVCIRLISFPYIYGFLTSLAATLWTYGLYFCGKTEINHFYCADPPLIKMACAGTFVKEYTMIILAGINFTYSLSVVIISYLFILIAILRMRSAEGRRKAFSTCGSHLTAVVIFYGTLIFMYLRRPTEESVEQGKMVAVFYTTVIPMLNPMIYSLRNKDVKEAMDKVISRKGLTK
UniProt A2AVB0, as listed by the source: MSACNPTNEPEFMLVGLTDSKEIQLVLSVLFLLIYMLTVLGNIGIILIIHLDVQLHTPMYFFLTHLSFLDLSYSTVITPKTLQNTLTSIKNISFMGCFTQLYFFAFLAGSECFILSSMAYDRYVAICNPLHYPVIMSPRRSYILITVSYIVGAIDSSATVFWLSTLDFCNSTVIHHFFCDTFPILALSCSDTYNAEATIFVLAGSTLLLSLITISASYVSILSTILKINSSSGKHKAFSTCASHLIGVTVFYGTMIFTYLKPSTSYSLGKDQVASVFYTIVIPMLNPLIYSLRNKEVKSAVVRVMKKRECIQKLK
UniProt Q62007: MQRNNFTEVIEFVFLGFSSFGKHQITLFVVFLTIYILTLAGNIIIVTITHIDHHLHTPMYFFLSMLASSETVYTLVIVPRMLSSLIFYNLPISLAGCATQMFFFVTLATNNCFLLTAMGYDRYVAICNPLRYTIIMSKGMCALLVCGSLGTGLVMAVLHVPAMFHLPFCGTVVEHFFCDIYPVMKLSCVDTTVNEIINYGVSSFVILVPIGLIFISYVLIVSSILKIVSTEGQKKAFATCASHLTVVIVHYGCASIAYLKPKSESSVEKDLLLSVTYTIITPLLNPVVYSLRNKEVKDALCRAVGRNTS

Tests used:
Details in all cases: stereoisomer not certain
[1] = tested on: T1, OR8S1
T1 sequence (whole entry): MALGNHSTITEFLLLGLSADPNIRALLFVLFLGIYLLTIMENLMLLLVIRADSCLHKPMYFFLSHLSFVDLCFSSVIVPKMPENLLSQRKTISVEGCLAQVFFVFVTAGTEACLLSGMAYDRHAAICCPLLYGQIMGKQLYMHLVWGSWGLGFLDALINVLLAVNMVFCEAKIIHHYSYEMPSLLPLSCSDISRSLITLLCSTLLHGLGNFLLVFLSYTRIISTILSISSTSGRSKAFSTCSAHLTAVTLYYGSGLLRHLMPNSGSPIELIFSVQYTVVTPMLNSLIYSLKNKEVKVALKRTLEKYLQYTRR
In short: (§1)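 Assay methods differ from source to source, frequently being transient luciferase assays in mammalian cell lines. For each receptor–molecule pair, the label responsive (active) applies when the original authors judged the measured signal statistically different from baseline, and non-responsive (inactive) applies otherwise.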

[2] = tested on: T2, OR8U1
T2 sequence (whole entry): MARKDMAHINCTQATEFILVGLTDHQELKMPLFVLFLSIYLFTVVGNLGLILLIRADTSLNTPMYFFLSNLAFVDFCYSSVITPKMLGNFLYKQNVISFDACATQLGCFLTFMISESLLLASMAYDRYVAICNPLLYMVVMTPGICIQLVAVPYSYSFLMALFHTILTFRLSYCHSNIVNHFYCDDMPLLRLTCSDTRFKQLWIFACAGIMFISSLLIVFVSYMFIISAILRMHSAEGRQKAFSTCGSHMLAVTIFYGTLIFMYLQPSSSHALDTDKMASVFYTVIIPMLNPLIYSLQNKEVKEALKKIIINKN
In short: as §1

[3] = tested on: T3, OR8U8
T3 sequence (whole entry): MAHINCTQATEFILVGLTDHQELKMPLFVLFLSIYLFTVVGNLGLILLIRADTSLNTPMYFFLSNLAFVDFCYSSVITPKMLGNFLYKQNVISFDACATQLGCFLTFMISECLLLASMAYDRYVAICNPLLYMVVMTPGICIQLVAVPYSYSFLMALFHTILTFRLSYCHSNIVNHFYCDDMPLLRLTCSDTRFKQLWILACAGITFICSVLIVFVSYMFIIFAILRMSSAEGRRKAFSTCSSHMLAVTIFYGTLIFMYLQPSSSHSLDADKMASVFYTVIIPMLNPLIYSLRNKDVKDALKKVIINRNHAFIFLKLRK
In short: as §1

[4] = tested on: T4, OR8U9
T4 sequence (whole entry): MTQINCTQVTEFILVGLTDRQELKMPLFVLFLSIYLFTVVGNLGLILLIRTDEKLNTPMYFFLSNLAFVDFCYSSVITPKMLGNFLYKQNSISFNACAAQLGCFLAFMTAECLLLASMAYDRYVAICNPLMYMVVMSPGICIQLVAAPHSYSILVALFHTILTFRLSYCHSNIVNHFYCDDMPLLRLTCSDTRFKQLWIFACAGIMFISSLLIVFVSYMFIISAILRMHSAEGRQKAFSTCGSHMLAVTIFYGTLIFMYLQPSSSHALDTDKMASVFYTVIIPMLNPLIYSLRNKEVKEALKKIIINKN
In short: as §1

[5] = tested on: T5, OR9A2
T5 sequence (whole entry): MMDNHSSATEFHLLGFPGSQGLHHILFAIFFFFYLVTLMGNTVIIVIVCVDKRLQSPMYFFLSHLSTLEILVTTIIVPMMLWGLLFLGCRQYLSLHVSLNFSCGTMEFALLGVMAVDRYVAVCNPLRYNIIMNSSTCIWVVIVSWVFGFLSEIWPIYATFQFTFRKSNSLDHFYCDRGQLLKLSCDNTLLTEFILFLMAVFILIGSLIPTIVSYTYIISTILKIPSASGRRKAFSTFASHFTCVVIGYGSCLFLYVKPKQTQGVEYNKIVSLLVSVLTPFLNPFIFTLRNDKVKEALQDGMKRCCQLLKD
In short: as §1

[6] = target: T6, OR9A4 (Homo sapiens) (UniProt Q8NGU2)
T6 sequence (whole entry): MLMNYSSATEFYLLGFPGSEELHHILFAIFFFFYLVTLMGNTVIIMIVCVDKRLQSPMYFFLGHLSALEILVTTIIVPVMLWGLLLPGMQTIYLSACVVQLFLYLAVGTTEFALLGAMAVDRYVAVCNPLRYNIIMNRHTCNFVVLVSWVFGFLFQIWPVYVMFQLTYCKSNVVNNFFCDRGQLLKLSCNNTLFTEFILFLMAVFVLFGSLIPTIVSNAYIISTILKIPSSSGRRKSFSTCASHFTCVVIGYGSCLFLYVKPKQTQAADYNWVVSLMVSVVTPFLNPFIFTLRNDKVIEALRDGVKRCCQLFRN
In short: as §1

[7] = tested on: T7, OR9G4
T7 sequence (whole entry): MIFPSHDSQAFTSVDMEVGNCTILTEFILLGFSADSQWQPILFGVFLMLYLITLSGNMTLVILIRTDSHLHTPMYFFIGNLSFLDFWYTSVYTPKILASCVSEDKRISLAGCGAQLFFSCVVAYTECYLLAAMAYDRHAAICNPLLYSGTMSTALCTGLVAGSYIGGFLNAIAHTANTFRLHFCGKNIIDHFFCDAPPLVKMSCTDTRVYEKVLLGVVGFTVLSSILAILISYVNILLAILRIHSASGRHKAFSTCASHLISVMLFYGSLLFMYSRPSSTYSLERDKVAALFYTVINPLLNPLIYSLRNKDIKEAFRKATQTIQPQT
In short: as §1

[8] = tested on: T8, OR9G9
T8 sequence (whole entry): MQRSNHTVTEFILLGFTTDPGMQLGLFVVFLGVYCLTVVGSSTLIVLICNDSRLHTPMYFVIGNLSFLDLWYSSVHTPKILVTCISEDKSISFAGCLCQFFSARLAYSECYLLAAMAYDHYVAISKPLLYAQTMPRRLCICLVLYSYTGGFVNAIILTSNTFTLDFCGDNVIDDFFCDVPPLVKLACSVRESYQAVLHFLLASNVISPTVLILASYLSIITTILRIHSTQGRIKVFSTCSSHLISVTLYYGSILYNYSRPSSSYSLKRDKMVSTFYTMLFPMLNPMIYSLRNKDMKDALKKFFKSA
In short: as §1

[9] = tested on: T9, OR9G9; remark: listed apart in the source
T9 sequence (whole entry): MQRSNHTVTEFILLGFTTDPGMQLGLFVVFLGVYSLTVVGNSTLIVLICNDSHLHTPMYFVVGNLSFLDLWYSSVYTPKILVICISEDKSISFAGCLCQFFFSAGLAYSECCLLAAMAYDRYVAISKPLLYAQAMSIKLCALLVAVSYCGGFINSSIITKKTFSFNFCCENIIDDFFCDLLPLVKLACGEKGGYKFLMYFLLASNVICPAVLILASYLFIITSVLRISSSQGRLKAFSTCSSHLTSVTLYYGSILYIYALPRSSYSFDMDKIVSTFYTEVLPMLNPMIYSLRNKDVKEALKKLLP
In short: as §1

[10] = target: T10, OR9I1 (Homo sapiens) (UniProt Q8NGQ6)
T10 sequence (whole entry): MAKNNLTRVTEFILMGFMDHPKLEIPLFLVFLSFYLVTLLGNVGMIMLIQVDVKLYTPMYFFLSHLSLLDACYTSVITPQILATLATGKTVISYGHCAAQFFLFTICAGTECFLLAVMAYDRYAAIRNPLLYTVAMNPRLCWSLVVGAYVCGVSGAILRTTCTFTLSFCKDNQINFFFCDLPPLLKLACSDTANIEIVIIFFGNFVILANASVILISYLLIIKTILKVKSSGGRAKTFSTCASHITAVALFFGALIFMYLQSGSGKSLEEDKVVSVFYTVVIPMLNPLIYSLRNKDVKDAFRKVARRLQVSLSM
In short: as §1

[11] = target: T11, OR9K2 (Homo sapiens) (UniProt Q8NGE7)
T11 sequence (whole entry): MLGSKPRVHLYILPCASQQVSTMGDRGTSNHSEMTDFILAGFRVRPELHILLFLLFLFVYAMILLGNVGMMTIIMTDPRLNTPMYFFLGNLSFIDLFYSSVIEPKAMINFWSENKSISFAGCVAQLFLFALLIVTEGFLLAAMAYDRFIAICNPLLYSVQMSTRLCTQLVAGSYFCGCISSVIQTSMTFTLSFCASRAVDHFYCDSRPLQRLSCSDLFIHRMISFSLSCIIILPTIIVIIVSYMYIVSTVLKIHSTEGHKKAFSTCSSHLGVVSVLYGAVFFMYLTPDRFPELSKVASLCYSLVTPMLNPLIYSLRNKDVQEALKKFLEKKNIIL
In short: as §1

[12] = tested on: T12, OR9Q1
T12 sequence (whole entry): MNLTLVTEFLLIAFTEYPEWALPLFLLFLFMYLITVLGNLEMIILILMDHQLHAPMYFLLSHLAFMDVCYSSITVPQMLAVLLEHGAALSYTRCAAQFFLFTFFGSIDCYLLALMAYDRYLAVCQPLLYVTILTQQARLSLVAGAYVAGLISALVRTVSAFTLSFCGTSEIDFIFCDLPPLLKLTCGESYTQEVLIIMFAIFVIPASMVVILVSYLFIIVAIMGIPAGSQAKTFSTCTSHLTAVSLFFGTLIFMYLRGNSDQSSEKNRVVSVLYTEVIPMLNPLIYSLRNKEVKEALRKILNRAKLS
In short: as §1

[13] = target: T13, OR9Q2 (Homo sapiens) (UniProt Q8NGE9)
T13 sequence (whole entry): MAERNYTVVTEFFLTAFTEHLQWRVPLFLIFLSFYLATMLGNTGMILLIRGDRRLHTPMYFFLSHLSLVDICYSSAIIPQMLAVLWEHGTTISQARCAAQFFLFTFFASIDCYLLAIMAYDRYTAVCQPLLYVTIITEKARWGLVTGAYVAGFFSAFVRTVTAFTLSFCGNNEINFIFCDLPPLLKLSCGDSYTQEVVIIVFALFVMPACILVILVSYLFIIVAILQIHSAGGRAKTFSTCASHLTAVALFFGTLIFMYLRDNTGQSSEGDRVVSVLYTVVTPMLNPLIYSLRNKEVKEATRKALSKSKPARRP
In short: as §1

[14] = tested on: T14, OR9Q2
T14 sequence (whole entry): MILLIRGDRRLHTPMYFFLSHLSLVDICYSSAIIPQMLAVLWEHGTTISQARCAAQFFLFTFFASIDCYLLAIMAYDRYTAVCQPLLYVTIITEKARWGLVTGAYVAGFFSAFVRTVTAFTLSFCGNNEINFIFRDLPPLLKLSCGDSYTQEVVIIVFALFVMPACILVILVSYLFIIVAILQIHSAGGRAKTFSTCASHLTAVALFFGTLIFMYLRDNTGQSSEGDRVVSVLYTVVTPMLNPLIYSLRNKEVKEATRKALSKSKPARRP
In short: as §1

[15] = tested on: T15, ORM2B
T15 sequence (whole entry): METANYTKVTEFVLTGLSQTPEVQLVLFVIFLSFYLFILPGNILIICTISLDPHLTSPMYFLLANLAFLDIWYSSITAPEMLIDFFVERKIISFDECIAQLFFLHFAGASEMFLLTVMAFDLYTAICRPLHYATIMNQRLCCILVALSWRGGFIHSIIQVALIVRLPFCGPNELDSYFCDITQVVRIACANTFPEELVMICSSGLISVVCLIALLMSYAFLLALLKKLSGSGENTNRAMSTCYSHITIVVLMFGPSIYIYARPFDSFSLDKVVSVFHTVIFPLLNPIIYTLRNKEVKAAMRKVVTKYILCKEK
In short: as §1

[16] = target: Or1m1 (Mus musculus) (UniProt Q8VFM9)
In short: as §1

[17] = target: Or5ar1 (Mus musculus) (UniProt Q8VGS3)
In short: as §1

[18] = target: UniProt A2ATE5
In short: as §1

[19] = target: UniProt A2AVB0
In short: as §1

[20] = target: Or10j5 (Mus musculus) (UniProt Q62007)
In short: as §1

Measured: odorant receptor agonist call

CCCCOC(C)=O
not listed: [16] | [17] | [18] | [19] | [20]
inactive: all other assays above

CCC(C)=O
not listed: [20]
inactive: all other assays above

CCOc1cc(C=O)ccc1O
inactive: [20] | [16] | [17] | [18] | [19]

CS
not listed: [16] | [17] | [18] | [19] | [20]
inactive: all other assays above
